Measurements published in publication doi:10.1101/559641.
Results are given in words; binding and its absence hold for the method and conditions named. In cells and extracts the contact can be indirect. Some entries that bind do so weakly or less than the wild type. For some assays here: Sequences can lack the tags named with a protein.

Chains of the proteins cited; added tags and fusions are not shown.
UniProt Q61686: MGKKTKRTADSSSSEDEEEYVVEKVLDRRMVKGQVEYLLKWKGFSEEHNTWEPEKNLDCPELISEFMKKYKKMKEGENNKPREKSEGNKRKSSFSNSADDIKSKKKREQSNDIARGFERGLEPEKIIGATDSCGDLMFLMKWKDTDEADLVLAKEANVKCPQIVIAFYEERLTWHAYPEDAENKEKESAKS
UniProt O09106: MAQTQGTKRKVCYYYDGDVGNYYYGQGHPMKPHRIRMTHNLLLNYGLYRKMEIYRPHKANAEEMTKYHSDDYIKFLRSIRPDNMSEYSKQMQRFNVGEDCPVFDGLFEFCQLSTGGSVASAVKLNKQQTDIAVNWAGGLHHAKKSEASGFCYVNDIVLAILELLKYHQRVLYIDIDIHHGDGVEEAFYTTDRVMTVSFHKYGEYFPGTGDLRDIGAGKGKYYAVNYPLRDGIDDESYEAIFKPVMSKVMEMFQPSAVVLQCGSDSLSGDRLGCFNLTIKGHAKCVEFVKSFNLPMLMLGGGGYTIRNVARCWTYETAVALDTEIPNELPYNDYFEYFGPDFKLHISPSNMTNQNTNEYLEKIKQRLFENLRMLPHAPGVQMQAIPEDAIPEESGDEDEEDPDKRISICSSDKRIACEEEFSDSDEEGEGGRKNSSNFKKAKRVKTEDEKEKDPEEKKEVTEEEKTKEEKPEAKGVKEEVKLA
UniProt Q9Z2D8: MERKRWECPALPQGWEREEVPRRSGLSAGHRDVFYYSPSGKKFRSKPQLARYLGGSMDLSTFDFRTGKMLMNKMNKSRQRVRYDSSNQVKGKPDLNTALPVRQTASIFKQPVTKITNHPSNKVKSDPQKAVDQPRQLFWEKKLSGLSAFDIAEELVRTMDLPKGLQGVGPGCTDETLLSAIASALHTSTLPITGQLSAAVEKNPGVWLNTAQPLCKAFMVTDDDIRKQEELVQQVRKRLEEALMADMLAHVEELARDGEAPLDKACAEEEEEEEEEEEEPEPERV
UniProt Q04207: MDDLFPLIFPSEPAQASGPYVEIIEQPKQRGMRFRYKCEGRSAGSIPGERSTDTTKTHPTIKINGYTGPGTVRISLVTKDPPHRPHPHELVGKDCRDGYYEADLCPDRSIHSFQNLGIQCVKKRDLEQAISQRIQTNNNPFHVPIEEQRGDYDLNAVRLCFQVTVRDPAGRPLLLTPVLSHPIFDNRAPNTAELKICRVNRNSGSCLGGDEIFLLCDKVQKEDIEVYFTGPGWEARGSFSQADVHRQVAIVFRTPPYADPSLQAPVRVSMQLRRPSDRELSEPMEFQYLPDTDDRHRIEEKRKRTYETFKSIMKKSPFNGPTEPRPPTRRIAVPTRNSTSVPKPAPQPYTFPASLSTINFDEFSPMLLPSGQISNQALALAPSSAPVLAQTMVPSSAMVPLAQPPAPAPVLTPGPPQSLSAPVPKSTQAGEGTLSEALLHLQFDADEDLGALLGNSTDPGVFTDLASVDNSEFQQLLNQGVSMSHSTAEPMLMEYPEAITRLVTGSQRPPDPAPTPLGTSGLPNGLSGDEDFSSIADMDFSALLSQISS
UniProt Q64321: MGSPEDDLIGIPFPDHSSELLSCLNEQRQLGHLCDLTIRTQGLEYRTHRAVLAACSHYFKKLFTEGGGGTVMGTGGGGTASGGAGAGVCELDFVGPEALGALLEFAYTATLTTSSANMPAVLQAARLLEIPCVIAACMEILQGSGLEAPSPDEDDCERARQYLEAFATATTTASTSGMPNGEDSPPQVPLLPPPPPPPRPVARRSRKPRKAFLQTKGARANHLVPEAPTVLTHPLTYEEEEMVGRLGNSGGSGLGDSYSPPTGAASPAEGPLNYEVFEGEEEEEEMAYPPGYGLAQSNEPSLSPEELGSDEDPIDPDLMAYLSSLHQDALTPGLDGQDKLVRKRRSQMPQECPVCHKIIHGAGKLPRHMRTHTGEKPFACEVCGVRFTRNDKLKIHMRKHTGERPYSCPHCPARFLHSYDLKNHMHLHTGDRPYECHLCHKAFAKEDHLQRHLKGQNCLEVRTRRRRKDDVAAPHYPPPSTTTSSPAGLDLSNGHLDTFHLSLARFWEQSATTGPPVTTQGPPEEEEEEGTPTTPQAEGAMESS

Experiments:
Experiment in all cases: co-IP
[1] = biological target: N-terminal GFP tagged Cbx5 (mouse (cDNA from C2C12 myoblast cells)) (UniProt Q61686)
[2] = biological target: N-terminal GFP tagged HDAC1 (mouse (cDNA from C2C12 myoblast cells)) (UniProt O09106)
[3] = biological target: N-terminal GFP tagged MBD3 (mouse (cDNA from C2C12 myoblast cells)) (UniProt Q9Z2D8)
[4] = biological target: T1, N-terminal GFP tagged RBM14 (mouse (cDNA from C2C12 myoblast cells)) (UniProt Q8C2Q3)
T1 sequence: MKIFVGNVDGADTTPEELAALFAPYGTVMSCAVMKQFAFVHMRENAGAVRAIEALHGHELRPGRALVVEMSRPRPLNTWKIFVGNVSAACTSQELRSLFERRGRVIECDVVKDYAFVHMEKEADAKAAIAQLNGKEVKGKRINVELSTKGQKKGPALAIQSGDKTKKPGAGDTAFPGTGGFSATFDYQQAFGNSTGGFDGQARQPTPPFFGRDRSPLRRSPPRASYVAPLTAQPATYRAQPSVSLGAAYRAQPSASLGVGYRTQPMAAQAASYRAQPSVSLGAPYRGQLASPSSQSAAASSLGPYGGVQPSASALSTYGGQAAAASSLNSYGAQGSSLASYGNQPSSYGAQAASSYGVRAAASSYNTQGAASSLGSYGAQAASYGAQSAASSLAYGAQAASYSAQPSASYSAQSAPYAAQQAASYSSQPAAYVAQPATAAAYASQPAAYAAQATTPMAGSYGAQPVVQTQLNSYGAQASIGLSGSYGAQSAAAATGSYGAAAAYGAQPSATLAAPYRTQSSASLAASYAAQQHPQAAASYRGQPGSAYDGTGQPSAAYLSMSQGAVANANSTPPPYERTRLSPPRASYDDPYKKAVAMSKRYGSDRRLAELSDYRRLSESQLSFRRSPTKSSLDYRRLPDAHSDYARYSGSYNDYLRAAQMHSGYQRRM

[5] = biological target: N-terminal GFP tagged p65 (mouse (cDNA from C2C12 myoblast cells)) (UniProt Q04207)

Measured: binding

N-terminal 3X-FLAG-tagged vertebrate GAF (vGAF/ThPOK/ZBTB7B), expressed in HEK293 cells (from UniProt Q64321 1-544)
binds: all assays above
